Record: PubChem BioAssay AID1259254 (NCATS, 2017)

Screen: 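Genome-wide screen for genes that prevent DNA re-replication in cancer cells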 (primary screen)
System: human HCT116 colorectal cancer cells
Knock-down reagent: single siRNA against human genes
Timing: 3 days
Measured: 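Nuclei stained with Hoechst and imaged; cell-cycle phase assigned by DNA content; G2 share scaled per plate, non-targeting siRNA 0%, GMNN siRNA 100%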
Reading the numbers: G2 robust z-score and G2 cells, % of GMNN control: higher = more G2 cells, more excess DNA replication
Hit rule: 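Active siRNAs have a G2 robust z of 5 or more median absolute deviations over the median, which in these data means about 38% or higher of GMNN control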
The whole screen tested about 59,000 reagents; this is a random part of them. About 1,550 of them (2.6%) count as active. 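G2 share is only a proxy for re-replication; each gene was hit by three separate siRNAs, and active genes were retested.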 Reagents against one gene are numbered here. Further read-outs or replicates are left out here. Not given: the amount of reagent.

For SLC47A2 #1, what was measured?
G2 robust z-score: 0.328; G2 cells, % of GMNN control: 5.27; Call: inactive

Which result is listed for SLC47A2 #2?
G2 robust z-score: 0.413; G2 cells, % of GMNN control: 5.87; Call: inactive

How did the screen score SLC47A2 #3?
G2 robust z-score: 0.168; G2 cells, % of GMNN control: 4.15; Call: inactive

How did the screen score OR51L1 #1?
G2 robust z-score: -0.388; G2 cells, % of GMNN control: 0.237; Call: inactive

What did the screen give for OR51L1 #2?
G2 robust z-score: 3.31; G2 cells, % of GMNN control: 26.3; Call: inactive

Which result is listed for OR51L1 #3?
G2 robust z-score: -0.523; G2 cells, % of GMNN control: -0.712; Call: inactive

Taken from above.
Under “Call”, SLC47A2 #3 reads inactive
Result of SLC47A2 #1 in “Call”: inactive

The listing continues:
For ARB2A #1, how do the results read?
G2 robust z-score: -1.04; G2 cells, % of GMNN control: -4.35; Call: inactive

What did the screen give for ARB2A #2?
G2 robust z-score: -0.0724; G2 cells, % of GMNN control: 2.46; Call: inactive

With ARB2A #3, what does the deposit list?
G2 robust z-score: -0.0544; G2 cells, % of GMNN control: 2.58; Call: inactive

With EFTUD2 #1, what was measured?
G2 robust z-score: 1.65; G2 cells, % of GMNN control: 14.6; Call: inactive

What did the screen give for EFTUD2 #2?
G2 robust z-score: 2.14; G2 cells, % of GMNN control: 18.1; Call: inactive

With EFTUD2 #3, what was measured?
G2 robust z-score: 1.56; G2 cells, % of GMNN control: 13.9; Call: inactive
